# From article PMC7976564
# By UniProt entry, the sequences of proteins in these tests, tags left out. Residues count along the entry.
# UniProt O35547: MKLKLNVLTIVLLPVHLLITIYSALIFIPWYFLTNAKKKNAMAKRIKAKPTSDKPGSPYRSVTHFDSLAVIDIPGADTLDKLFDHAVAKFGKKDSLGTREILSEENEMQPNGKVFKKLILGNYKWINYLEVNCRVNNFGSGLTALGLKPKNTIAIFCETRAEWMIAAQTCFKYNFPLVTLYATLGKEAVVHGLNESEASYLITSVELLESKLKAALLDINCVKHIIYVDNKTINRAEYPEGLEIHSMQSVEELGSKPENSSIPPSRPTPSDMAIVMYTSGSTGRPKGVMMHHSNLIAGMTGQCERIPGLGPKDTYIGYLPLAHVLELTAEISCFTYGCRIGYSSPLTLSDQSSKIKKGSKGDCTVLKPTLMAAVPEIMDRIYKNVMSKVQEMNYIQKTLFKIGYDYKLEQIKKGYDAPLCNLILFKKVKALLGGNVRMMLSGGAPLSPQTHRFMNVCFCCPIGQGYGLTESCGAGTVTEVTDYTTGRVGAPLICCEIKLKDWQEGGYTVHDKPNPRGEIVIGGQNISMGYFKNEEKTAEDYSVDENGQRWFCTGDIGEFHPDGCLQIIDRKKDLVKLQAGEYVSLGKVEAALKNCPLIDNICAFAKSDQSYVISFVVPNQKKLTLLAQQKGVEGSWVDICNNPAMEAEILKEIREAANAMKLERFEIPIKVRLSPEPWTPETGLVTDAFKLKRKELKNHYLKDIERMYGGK
# UniProt Q5I0H3, residues 1-97: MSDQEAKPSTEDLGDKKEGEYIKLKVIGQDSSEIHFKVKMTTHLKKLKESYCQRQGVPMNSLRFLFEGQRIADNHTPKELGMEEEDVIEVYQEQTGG
# No constants are given. Whether binding was seen depends on the method and setting. Binding seen in cells or lysates may run through a third protein. Some binding calls cover weakened binding; strength is not graded here.
# Target: acyl-CoA synthetase long-chain family member 4 (rat (endogenous in H9c2)) (UniProt O35547)
# Assay: co-IP; anti-ACSL4 antibody added to 500 µL H9c2 protein extract overnight at 4 °C, agarose beads, eluted by boiling in SDS reducing sample buffer, immunoblot for SUMO-1; cells infected with Ad5/F11p.SENP1 or Ad5/F11p.Null
substance,measurement,value
SUMO1 (from UniProt Q5I0H3 1-97),binding,binds
